Here are results for six substances from patent US5714576A (Competitive Technologies, Inc., priority 1997, dated 1998).

Non-standard residues stand in square brackets, D forms with d. Nle = CCCC[C@H](N)C(=O)O

The first data set in a line: general procedure: Boc solid-phase peptide synthesis; p-methylbenzhydrylamine (pMBHA) resin; DCC/HOBt; BOP/DIEA for on-resin cyclization. The settings on record: whole synthesis.
With “Ac-Nle^4, Asp^5, D-Phe^7, Dpr^10 !-alpha-MSH4-10 NH2”, the isolated yield was 36%.

Substance “Ac-Nle^4, Asp^5, Lys^10 !-alpha-MSH4-10 NH2” displayed an isolated yield of 37%.

In the case of “Ac-Nle^4, D-Phe^7, Lys^10, Gly^11 !-alpha-MSH4-13 NH2 (SEQ. NO. 3)”, the isolated yield is on record as 22%.

In the case of Ac-Nle^4, Lys^10 !-alpha-MSH4-10 NH2, the isolated yield amounted to 40%.

The substance “Ac-{Nle^4, Asp^5, D-Phe^7, Dab^10 !-alpha-MSH4-10 NH2” displayed an isolated yield of 36%.

The same data set, now with this note: whole synthesis, TLC in three solvents and analytical HPLC (Vydac 218TP104 C18) at 280 nm and 230 nm.
With Ac-SYS[Nle]DH[dF]RWKGPV-NH2, the “final HPLC purity” value was found to be 90% pure.
